The values below are quoted from earlier work in patent publication US4603132A, “Phenothiazine compounds with anti-bronchospastic activity and pharmaceutical compositions containing them” (priority 1984, dated 1986).

The subject of this data set is bronchial asthma. To be noted: literature, in words; cited from earlier work.

Structures are written as SMILES.

On to `CN1CCC[C@@H]1CCO[C@](C)(c1ccccc1)c1ccc(Cl)cc1` [clemastine], for which the “effect in bronchial asthma / bronchial hyperreactivity” value was “singularly inefficacious in the bronchial asthma”.
